The list shows a part of the results.
Molecular target: T1, OsSMF1 (Oryza sativa, UniProt Q6ZLB0 1-436)
T1 sequence: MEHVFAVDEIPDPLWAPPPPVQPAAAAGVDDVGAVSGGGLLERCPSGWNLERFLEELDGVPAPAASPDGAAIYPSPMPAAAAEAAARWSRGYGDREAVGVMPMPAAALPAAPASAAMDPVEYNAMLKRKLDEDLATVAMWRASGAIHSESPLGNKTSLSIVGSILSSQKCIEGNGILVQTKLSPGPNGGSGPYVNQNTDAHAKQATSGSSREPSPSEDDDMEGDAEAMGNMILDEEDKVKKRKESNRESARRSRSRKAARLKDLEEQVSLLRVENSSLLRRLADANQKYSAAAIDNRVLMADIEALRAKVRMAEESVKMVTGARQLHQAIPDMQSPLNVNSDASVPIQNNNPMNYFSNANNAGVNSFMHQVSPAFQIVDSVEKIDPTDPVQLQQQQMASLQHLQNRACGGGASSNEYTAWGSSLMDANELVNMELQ
Assay: protein-binding microarray (RPBM); PBS, 2% BSA, 51.3 ng/ul salmon testes DNA, 50 uM zinc acetate, 200 nM TF, 25 C, 1 h; high values mean tight binding
Conditions: protein: recombinant; tags: N-terminal polyhistidine and DsRed monomer fusion (pET32a); chain copies: 2; label: CyDye5-dUTP incorporated in the synthesized complementary strand; 3' TTTTT single-stranded linker to array surface; dsDNA, one strand shown
In short: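 Polyhistidine-tagged DsRed fusions of transcription factors, joined at the N-terminus, were expressed in E. coli BL21-CodonPlus and isolated on Ni–NTA. They were incubated at 200 nM for 1 h at 25 °C on a custom Agilent array, double-stranded and BSA-blocked, in PBS with 2% BSA, salmon testes DNA and 50 µM zinc acetate. The binding signal is per-feature fluorescence intensity (arbitrary units) read on an Axon 4000B scanner after washing.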

Sequence	binding signal
ACTGACAGGTGGGTCCCACACCGTCAGCAGTAGGACATAACGGAGTCACCTAGTGCAG	5490 fluorescence intensity (a.u.)
CACGTACGCCGCCGTGTCTCATCACGAGCTCGATCGTTTCCGGAGTCACCTAGTGCAG	4150 fluorescence intensity (a.u.)
TCTGCGCGGTGGTCCCAGGCGTTGACGTGACGGGCGGCGACGGAGTCACCTAGTGCAG	3690 fluorescence intensity (a.u.)
GCCTCTGCCACGCCCACCTCATCCGCCTCTACCTCCGCTCCGGAGTCACCTAGTGCAG	6040 fluorescence intensity (a.u.)
CCTCTCCTTCCCGTCCGCATCACGCCCTCGTGGAGTCGTGCGGAGTCACCTAGTGCAG	4270 fluorescence intensity (a.u.)
AATATAAGTGTAAAACAGAGAATTGCAAAACACAGGAAAACGGAGTCACCTAGTGCAG	31500 fluorescence intensity (a.u.)
TATATTGCCCACACCACATGTTGTTCATTGTTGAAGGCACCGGAGTCACCTAGTGCAG	3340 fluorescence intensity (a.u.)
TGTTTGTTTTGGTCACATTGCCCATAACTGTATCTGCACACGGAGTCACCTAGTGCAG	3760 fluorescence intensity (a.u.)
GCATTGGTGTGTCATGACAATGTAATGATTTTCACTGAGCCGGAGTCACCTAGTGCAG	5250 fluorescence intensity (a.u.)
AGTTTGTACGACAAGCCATGTCAAATGACAATGCAGTTTGCGGAGTCACCTAGTGCAG	3210 fluorescence intensity (a.u.)
ACGGAGCAGTGGGATGACGACACGTGCGCGCATCGTATGGCGGAGTCACCTAGTGCAG	5800 fluorescence intensity (a.u.)
GGCGACTAGCTACGCGTGCATATGCACGAACTGTTCGATGCGGAGTCACCTAGTGCAG	3200 fluorescence intensity (a.u.)
TGCCGGTGGATGTTGATGGTGGTGTTTGGTGCCGGTGAATCGGAGTCACCTAGTGCAG	4720 fluorescence intensity (a.u.)
CGCGCACAACTATGTGCAAATGACGCCGAAGAGAGCTGTGCGGAGTCACCTAGTGCAG	3260 fluorescence intensity (a.u.)
AGGTACGGAACAAAATTATTGTAACATGATGGCATTTGAGCGGAGTCACCTAGTGCAG	3160 fluorescence intensity (a.u.)
GTAAACGGCACATCAAATGCCACGTGGGACGAAGACCTAGCGGAGTCACCTAGTGCAG	10200 fluorescence intensity (a.u.)
TGGAATTCACATACATAAACACTCAATAGGAGTAGAAATTCGGAGTCACCTAGTGCAG	3240 fluorescence intensity (a.u.)
TCCCAAACTTTCGACACTGCCATGTCAGCAATCACTTTCCCGGAGTCACCTAGTGCAG	18000 fluorescence intensity (a.u.)
TGCAGCAGCATGAGTGCATGACCCACCCGGTTTGTTGGTTCGGAGTCACCTAGTGCAG	3160 fluorescence intensity (a.u.)
ACGACTTGTCGAACCCCGCCGCCGCTGCCAGATCGGAGGCCGGAGTCACCTAGTGCAG	3510 fluorescence intensity (a.u.)
CTCCAAAATCTCTATAGGATTGTCCATTCCATAGGAATTTCGGAGTCACCTAGTGCAG	3390 fluorescence intensity (a.u.)

Sequence	binding signal
AATTTACTATGTACTGCAGGGGTGAGATTATACCACTTGACGGAGTCACCTAGTGCAG	3430 fluorescence intensity (a.u.)
CTCCTCATCCCCACGCCACCGCCGCCATCGCCGGCCTTTTCGGAGTCACCTAGTGCAG	3260 fluorescence intensity (a.u.)
ATTCATCGATCTATCGCTTTAACCGCCTATAAGAACATGGCGGAGTCACCTAGTGCAG	4910 fluorescence intensity (a.u.)
TCCTTTAATTATATAATAGATTTCCAGATATTCTTTTACCCGGAGTCACCTAGTGCAG	3880 fluorescence intensity (a.u.)
GCGATGGTGTGCATCGCCACCGCGTCGTGGTCCTTGCCGACGGAGTCACCTAGTGCAG	3200 fluorescence intensity (a.u.)
CCTGCCTACGTGCCGCCGGTAGCTCAAGTCGATAGGCAAGCGGAGTCACCTAGTGCAG	3590 fluorescence intensity (a.u.)
ATTACATATGTAAGTGACGTGCAAGTGGGTTTTACTACGTCGGAGTCACCTAGTGCAG	7810 fluorescence intensity (a.u.)
AAAAGTATAGTTGGTTGTCATGTATAACTCTCAACCTCTACGGAGTCACCTAGTGCAG	3350 fluorescence intensity (a.u.)
CCGCCAGTAGTGCCCGTCCCCAGCGCATCCGCAGACGATCCGGAGTCACCTAGTGCAG	3600 fluorescence intensity (a.u.)
CGGGAGAGGGAGGTGATGATGGGGCGGCGGAGGATTGGAGCGGAGTCACCTAGTGCAG	4900 fluorescence intensity (a.u.)
ACGAGGCCGATGCCGTGTCGCCCGCCGCCGAATCATCGCCCGGAGTCACCTAGTGCAG	4920 fluorescence intensity (a.u.)
CGATATATGCCTTGATGATCTACGGGAGGATAAGCCTCGGCGGAGTCACCTAGTGCAG	13100 fluorescence intensity (a.u.)
CAGACGGATTATGTAATTTGTTTTATTATTAATTAGTCTACGGAGTCACCTAGTGCAG	3890 fluorescence intensity (a.u.)
TGATAAATTACCCATCTATTAGTCATACCAGTGGCTTTGTCGGAGTCACCTAGTGCAG	3500 fluorescence intensity (a.u.)
GCCGCCGCCGCCGCCGCCGCCGCTGTGTGTACGACTACGACGGAGTCACCTAGTGCAG	3250 fluorescence intensity (a.u.)
TCAATAGATTTTCAGATACCTACGTGGTACATCTAGTGCTCGGAGTCACCTAGTGCAG	4090 fluorescence intensity (a.u.)
TTAAATTTCCCCTTGAAACCACTCTGAAACATTTGTAGAGCGGAGTCACCTAGTGCAG	3360 fluorescence intensity (a.u.)
TCTGCTGCGTGACGACGCCTCGTCGCCTTCTCTACCTCTCCGGAGTCACCTAGTGCAG	3870 fluorescence intensity (a.u.)
ACTCGTCGCCCTCTCATCTCATGTTGTAGTATTCCCTCCGCGGAGTCACCTAGTGCAG	3490 fluorescence intensity (a.u.)
ACCATCGGCACGTCACAACTACTTTTACACGTTTTATAAACGGAGTCACCTAGTGCAG	3720 fluorescence intensity (a.u.)
ACTTTGTTTGCACTTAAGTTGGGTGATGTGTTGTATCCGGCGGAGTCACCTAGTGCAG	3710 fluorescence intensity (a.u.)

Part of the list above, as comma-separated lines:
Sequence,binding signal
AATTTACTATGTACTGCAGGGGTGAGATTATACCACTTGACGGAGTCACCTAGTGCAG,3430 fluorescence intensity (a.u.)
CTCCTCATCCCCACGCCACCGCCGCCATCGCCGGCCTTTTCGGAGTCACCTAGTGCAG,3260 fluorescence intensity (a.u.)
ATTCATCGATCTATCGCTTTAACCGCCTATAAGAACATGGCGGAGTCACCTAGTGCAG,4910 fluorescence intensity (a.u.)
TCCTTTAATTATATAATAGATTTCCAGATATTCTTTTACCCGGAGTCACCTAGTGCAG,3880 fluorescence intensity (a.u.)
GCGATGGTGTGCATCGCCACCGCGTCGTGGTCCTTGCCGACGGAGTCACCTAGTGCAG,3200 fluorescence intensity (a.u.)
CCTGCCTACGTGCCGCCGGTAGCTCAAGTCGATAGGCAAGCGGAGTCACCTAGTGCAG,3590 fluorescence intensity (a.u.)
ATTACATATGTAAGTGACGTGCAAGTGGGTTTTACTACGTCGGAGTCACCTAGTGCAG,7810 fluorescence intensity (a.u.)
AAAAGTATAGTTGGTTGTCATGTATAACTCTCAACCTCTACGGAGTCACCTAGTGCAG,3350 fluorescence intensity (a.u.)
CCGCCAGTAGTGCCCGTCCCCAGCGCATCCGCAGACGATCCGGAGTCACCTAGTGCAG,3600 fluorescence intensity (a.u.)
CGGGAGAGGGAGGTGATGATGGGGCGGCGGAGGATTGGAGCGGAGTCACCTAGTGCAG,4900 fluorescence intensity (a.u.)
ACGAGGCCGATGCCGTGTCGCCCGCCGCCGAATCATCGCCCGGAGTCACCTAGTGCAG,4920 fluorescence intensity (a.u.)
CGATATATGCCTTGATGATCTACGGGAGGATAAGCCTCGGCGGAGTCACCTAGTGCAG,13100 fluorescence intensity (a.u.)

— paper PMC7819943, “Rice protein-binding microarrays: a tool to detect cis-acting elements near promoter regions in rice”
